Binding data for one substance are collected here from publication PMC7176290.

Results are given in words; binding and its absence hold for the method and conditions named. Binding seen in cells or lysates may run through a third protein. Binding calls can cover weak binding; strength is not graded here. Tags and fused reporters may be left off the sequences shown.

For this assay, the target named is T1, Flag-Rab5c (zebrafish) (UniProt Q7ZVP2).
T1 sequence: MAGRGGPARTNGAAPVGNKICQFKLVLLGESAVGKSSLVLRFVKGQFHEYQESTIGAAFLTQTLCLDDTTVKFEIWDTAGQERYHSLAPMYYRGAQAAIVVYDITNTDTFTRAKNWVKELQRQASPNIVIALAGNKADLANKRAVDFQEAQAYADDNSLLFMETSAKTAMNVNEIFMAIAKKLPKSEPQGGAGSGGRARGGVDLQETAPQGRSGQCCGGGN
In words: co-IP; 293T cells co-transfected with flag-tagged rab5c and myc-tagged appl1; lysate in IP lysis buffer (50 mM Tris-HCl pH 7.4, 150 mM NaCl, 1 mM EDTA, 0.5 mM DTT, 0.5% NP-40, 5% glycerol) incubated with anti-FLAG M2 Affinity Gel for 4 hours at 4°C; western blot with anti-Flag and anti-Myc.

As for Appl1-Myc, the binding result is “binds”.
